Laboratory results from publication PMC7774954, “Interactomic affinity profiling by holdup assay: Acetylation and distal residues impact the PDZome-binding specificity of PTEN phosphatase” (PLoS ONE, 2020).
No constants are given. Whether binding was seen depends on the method and setting. Some entries that bind do so weakly or less than the wild type.

Chains of the proteins cited; added tags and fusions are not shown. Lines headed by an entry give the natural chain unless they say otherwise; changes in a name come on top.
UniProt P60484: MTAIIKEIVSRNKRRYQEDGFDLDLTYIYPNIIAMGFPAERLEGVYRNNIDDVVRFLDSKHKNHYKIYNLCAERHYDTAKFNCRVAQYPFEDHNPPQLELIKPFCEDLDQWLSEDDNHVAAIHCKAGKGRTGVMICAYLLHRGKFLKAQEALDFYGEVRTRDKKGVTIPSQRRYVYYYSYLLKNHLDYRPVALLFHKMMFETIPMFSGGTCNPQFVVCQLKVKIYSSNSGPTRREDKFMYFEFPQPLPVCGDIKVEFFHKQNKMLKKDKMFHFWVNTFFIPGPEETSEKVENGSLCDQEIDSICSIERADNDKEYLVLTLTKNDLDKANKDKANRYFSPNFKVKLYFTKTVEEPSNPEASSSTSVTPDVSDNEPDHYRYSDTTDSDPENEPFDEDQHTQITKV

T1: fRSK1, fluorescein-labelled RSK1 PBM peptide
T1 sequence (peptide, fluorescein on the N-terminus): KLPSTTL


Columns and labels:
[1] = molecular target: T1, fRSK1, fluorescein-labelled RSK1 PBM peptide; experiment: fluorescence polarisation; competitive: pre-formed complex of PDZ domain (>60-80% complex) and 50 nM fluorescent tracer peptide, increasing amount of unlabeled PTEN peptide (8 concentrations); 20 mM HEPES pH 7.5, 150 mM NaCl, 0.5 mM TCEP, 0.01% Tween 20; triplicate; competitive binding model (ProFit); apparent; both purified
PTEN_Ac (human) = PTEN_Ac (human) (UniProt P60484); experiment: holdup assay; biotinylated PBM peptide saturating streptavidin resin (biotin resin as reference); tag-PDZ at 4 uM in crude E. coli lysate, 15 min, filtration, free tag-PDZ by capillary electrophoresis; singlicate; BI cut-off 0.20; BI converted into KD with the peptide concentration back-calculated from FP; only the target purified
PTEN_13 (human) = PTEN_13 (human) (UniProt P60484); experiment: as above
PTEN_11 (human) = PTEN_11 (human) (UniProt P60484); experiment: as above
PTEN_KR (human) = PTEN_KR (human) (UniProt P60484); experiment: as above

Row | binding [1] | binding (PTEN_Ac (human)) | binding (PTEN_13 (human)) | binding (PTEN_11 (human)) | binding (PTEN_KR (human)) | Binder
1 | binds |  |  |  |  | PDZD7-3, third PDZ domain of PDZD7 (domain or fragment, UniProt Q9H5P4 862-934) TVTLSKMKQSLGISISGGIESKVQPMVKIEKIFPGGAAFLSGALQAGFELVAVDGENLEQVTHQRAVDTIRRA
2 |  | no binding (tested: BI cut-off 0.20) | no binding (tested: BI cut-off 0.20) | no binding (tested: BI cut-off 0.20) | no binding (tested: BI cut-off 0.20) | SDCBP-1 (domain or fragment, UniProt O00560 114-193) EVILCKDQDGKIGLRLKSIDNGIFVQLVQANSPASLVGLRFGDQVLQINGENCAGWSSDKAHKVLKQAFGEKITMTIRDR
